Results reported in PMC7435877 (Molecules, 2020).

System: A549
Test: In vitro antiproliferative activity, SRB assay, A549
Format: cell-based
Conditions: Homo sapiens, A549, 72 h, read-out: Antiproliferative activity IC50, A549

COc1cc2c(c(OC)c1OC)-c1ccc(OC)c(=O)cc1[C@@H](NC(C)=O)CC2 [Compound 1, Colchicine, reference compound]
IC50: 0.0452 ± 0.0186 µM
